The supplement of paper PMC4604168 (melanoma cell lines)
The list shows a part of the results. Many values rest on one well or one pass, so single values are uncertain.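 Cells were imaged in 1,536-well plates, and nuclei stained with an antibody against cleaved PARP were counted against all DNA-stained nuclei to give the apoptosis fraction. Screening doses were chosen to leave most cells alive, and resting and induced cleaved-PARP levels differ strongly between cell lines.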

Assays:
Experiment in all cases: cleaved PARP positive nuclei fraction relative to DMSO control; melanoma cells; higher = more apoptosis
Conditions in all cases: library dose: low library concentration; 72 h
501Mel = system: 501Mel
A101D = system: A101D
A2058 = system: A2058
C32 = system: C32
CBRC008 = system: CBRC008 (line from a melanoma biopsy)
CBRC014 = system: CBRC014 (line from a melanoma biopsy)
CBRC016 = system: CBRC016 (line from a melanoma biopsy)
CBRC017 = system: CBRC017 (line from a melanoma biopsy)
COLO792 = system: COLO792
COLO800 = system: COLO800
COLO829 = system: COLO829
G361 = system: G361
IPC-298 = system: IPC-298
IST-MEL1 = system: IST-MEL1
LB2518-MEL = system: LB2518-MEL
LOXIMVI = system: LOXIMVI

| Compound | cleaved PARP positive nuclei fraction (501Mel) [%] | cleaved PARP positive nuclei fraction (A101D) [%] | cleaved PARP positive nuclei fraction (A2058) [%] | cleaved PARP positive nuclei fraction (C32) [%] | cleaved PARP positive nuclei fraction (CBRC008) [%] | cleaved PARP positive nuclei fraction (CBRC014) [%] | cleaved PARP positive nuclei fraction (CBRC016) [%] | cleaved PARP positive nuclei fraction (CBRC017) [%] | cleaved PARP positive nuclei fraction (COLO792) [%] | cleaved PARP positive nuclei fraction (COLO800) [%] | cleaved PARP positive nuclei fraction (COLO829) [%] | cleaved PARP positive nuclei fraction (G361) [%] | cleaved PARP positive nuclei fraction (IPC-298) [%] | cleaved PARP positive nuclei fraction (IST-MEL1) [%] | cleaved PARP positive nuclei fraction (LB2518-MEL) [%] | cleaved PARP positive nuclei fraction (LOXIMVI) [%] |
| --- | --- | --- | --- | --- | --- | --- | --- | --- | --- | --- | --- | --- | --- | --- | --- | --- |
| CO[C@H]1C[C@@H]2CC[C@@H](C)[C@@](O)(O2)C(=O)C(=O)N2CCCC[C@H]2C(=O)O[C@H]([C@H](C)C[C@@H]2CC[C@@H](OCCO)[C@H](OC)C2)CC(=O)[C@H](C)/C=C(\C)[C@@H](O)[C@@H](OC)C(=O)[C@H](C)C[C@H](C)/C=C/C=C/C=C/1C [everolimus] + COc1ccc2c(c1)CCC1C2CCC2(C)C(NCCCCCCN3C(=O)C=CC3=O)CCC12 [U73122] (first compound 0.02 µM, partner dose 0.4 µM) | 109 | 37.1 | 89.3 | 150 | 291 | 112 | 220 | 147 | 139 | 126 | 201 | 127 | 133 | 97.1 | 96.1 | 237 |
| CNC(=O)c1cc(Oc2ccc(NC(=O)Nc3ccc(Cl)c(C(F)(F)F)c3)cc2)ccn1 [sorafenib] + N#Cc1c(O)c2c(-c3ccc(-c4ccccc4O)cc3)csc2[nH]c1=O [A769662] (first compound 0.4 µM, partner dose 2 µM) | 60.8 | 64.4 | 53.2 | 89.2 | 180 | 80.4 | 122 | 76.8 | 62 | 87.9 | 120 | 112 | 98.6 | 43.1 | 213 | 58.7 |
| C=C(c1ccc(C(=O)O)cc1)c1cc2c(cc1C)C(C)(C)CCC2(C)C [Bexarotene] + O=C(O)C(=O)Nc1sc2c(c1C(=O)O)CCNC2 [TCS401] (first compound 2 µM, partner dose 1.66667 µM) | 32.1 | 27.6 | 19.2 | 25.1 | 172 | 138 | 68.7 | 155 | 54.2 | 151 | 29.9 | 121 | 95.6 | 53.8 | 66.2 | 14.8 |
| C[C@@H](Oc1cc(-c2cnn(C3CCNCC3)c2)cnc1N)c1c(Cl)ccc(F)c1Cl [Crizotinib] + Oc1cc(-c2nc(-c3ccccc3)[nH]c2-c2ccncc2)ccc1Cl [L779450] (first compound 0.2 µM, partner dose 0.2 µM) | 87 | 6.41 | 151 | 217 | 99.8 | 103 | 84.6 | 85 | 183 | 72.8 | 119 | 157 | 81.6 | 111 | 79.7 | 62 |
| Cc1cc(Nc2cc(N3CCN(C)CC3)nc(/C=C/c3ccccc3)n2)n[nH]1 + Oc1nc(-c2ccc(C(F)(F)F)cc2)nc2c1CSCC2 [XAV939] (first compound 0.04 µM, partner dose 2 µM) | 27.5 | 17.6 | 24.9 | 40.6 | 149 | 90.2 | 15.5 | 81.1 | 44.2 | 129 | 82.2 | 139 | 63.7 | 45.4 | 82.2 | 56.4 |
| Cc1cc(Nc2cc(N3CCN(C)CC3)nc(/C=C/c3ccccc3)n2)n[nH]1 + COc1cc(N2CCC(N3CCN(C)CC3)CC2)ccc1Nc1ncc(Cl)c(Nc2ccccc2S(=O)(=O)C(C)C)n1 [NVP-TAE684] (first compound 0.04 µM, partner dose 0.08 µM) | 258 | 22.8 | 110 | 43.8 | 100 | 95.4 | 28.9 | 74.7 | 107 | 42.6 | 63.2 | 79.6 | 96 | 152 | 63.5 | 109 |
| Cn1c(=O)n(-c2ccc(C(C)(C)C#N)cc2)c2c3cc(-c4cnc5ccccc5c4)ccc3ncc21 + Oc1nc(-c2ccc(C(F)(F)F)cc2)nc2c1CSCC2 [XAV939] (first compound 0.004 µM, partner dose 2 µM) | 71.8 | 23.3 | 62.4 | 132 | 174 | 77.9 | 23.9 | 93.5 | 212 | 130 | 97.4 | 64.6 | 66.9 | 96.1 | 73.8 | 84 |
| Nc1nc(F)nc2c1ncn2[C@@H]1O[C@H](CO)[C@@H](O)[C@@H]1O [fludarabine] + Cc1cc([N+](=O)[O-])ccc1NS(=O)(=O)c1cc(Cl)ccc1Cl [FH535] (first compound 0.2 µM, partner dose 1 µM) | 1750 | 17.6 | 59.8 | 92.5 | 542 | 135 | 1170 | 247 | 39.3 | 135 | 136 | 132 | 72.2 | 134 | 89.7 | 97.8 |
| Nc1ccn([C@@H]2O[C@H](CO)[C@@H](O)C2(F)F)c(=O)n1 [gemcitabine] + CCc1ccc(CCOc2ccc(CC3SC(=O)NC3=O)cc2)nc1 [pioglitazone] (first compound 0.0004 µM, partner dose 2 µM) | 98.5 | 29.1 | 182 | 558 | 93.3 | 1000 | 115 | 105 | 112 | 59.5 | 79.9 | 84.2 | 198 | 124 | 80.8 | 126 |

Single values from above:
CNC(=O)c1cc(Oc2ccc(NC(=O)Nc3ccc(Cl)c(C(F)(F)F)c3)cc2)ccn1 [sorafenib] + N#Cc1c(O)c2c(-c3ccc(-c4ccccc4O)cc3)csc2[nH]c1=O [A769662] (first compound 0.4 µM, partner dose 2 µM) | cleaved PARP positive nuclei fraction (C32) [%]: 89.2
Nc1ccn([C@@H]2O[C@H](CO)[C@@H](O)C2(F)F)c(=O)n1 [gemcitabine] + CCc1ccc(CCOc2ccc(CC3SC(=O)NC3=O)cc2)nc1 [pioglitazone] (first compound 0.0004 µM, partner dose 2 µM) | cleaved PARP positive nuclei fraction (G361) [%]: 84.2
